In assay [1] the target is OsMKK1 fused to cEYFP (rice (Oryza sativa)). Nature of the assay: split reporter; BiFC in tobacco (N. benthamiana) leaves; bait with cYFP (OsMKK1), prey with nYFP (OsBURP3, PpBURP2); agroinfiltration, fluorescence examined after 48 h.
Assay [2] addresses OsMKK1 (mitogen-activated protein kinase kinase from rice), pGBKT7 fusion (rice (Oryza sativa)). Nature of the assay: two-hybrid; Matchmaker Gold Yeast Two-Hybrid System; OsMKK1 in pGBKT7, BURP proteins in pGAD-T7, co-transformed into Y2H Gold; growth on SD/-Leu/-Trp/-His and SD/-Leu/-Trp/-His/-Ade at 30°C for 3-5 days.

No constants are given. Whether binding was seen depends on the method and setting. A result given as binding can be weak or reduced; the word gives no strength. Tags and fused reporters may be left off the sequences shown. For some assays here: Binding seen in cells or lysates may run through a third protein.

B1: OsBURP3 fused to nEYFP (protein, UniProt Q942D4 22-429)
chain: ARTPEQYWKSALPNSPIPSSLSQLLSTAGGGTSVNVGGGGVHVDAGHGKPGGTTVDVGKGGVGVNVKPGYGKPGGTTVGVGKGGVGVNVKPGYGKPGGTSVGVGKGGVGVNVQPGYGKPGGTTVGVGKGGVGVNVQPGYGKPGGTTVGVGKGGVGVNVKPRGKPVHVNVAPFIYNYAATETQLHDDPNVALFFLEKDLHPGKTMAVHFTATTAGEKFLPRSEADAMPFSSEKVPEILSRFSVKPGSVEAAEMAQTLRDCEAPPAQGERKACATSLESMVDFATSSLGTSHVRAASTVVGKEGSPEQEYTVTAVKRAAAGGDQDQLVACHAEPYAYAVFACHLTRATRAYAVSMAGRDGTGVEAVAVCHADTAGWNPKHVAFQVLKVKPGTVPVCHFLPQDHVVWTRSG
In the case of B1, in assay [1], the binding result is reported as “binds”.

B2: OsBURP3 (BURP domain-containing protein 3 from rice), pGAD-T7 fusion (protein, UniProt Q942D4 1-429)
chain: MDRLLACLLGFLLIASVGSHAARTPEQYWKSALPNSPIPSSLSQLLSTAGGGTSVNVGGGGVHVDAGHGKPGGTTVDVGKGGVGVNVKPGYGKPGGTTVGVGKGGVGVNVKPGYGKPGGTSVGVGKGGVGVNVQPGYGKPGGTTVGVGKGGVGVNVQPGYGKPGGTTVGVGKGGVGVNVKPRGKPVHVNVAPFIYNYAATETQLHDDPNVALFFLEKDLHPGKTMAVHFTATTAGEKFLPRSEADAMPFSSEKVPEILSRFSVKPGSVEAAEMAQTLRDCEAPPAQGERKACATSLESMVDFATSSLGTSHVRAASTVVGKEGSPEQEYTVTAVKRAAAGGDQDQLVACHAEPYAYAVFACHLTRATRAYAVSMAGRDGTGVEAVAVCHADTAGWNPKHVAFQVLKVKPGTVPVCHFLPQDHVVWTRSG
On to B2, for which the binding result in assay [2] was “binds”.

Source of the values: PMC9121072.
